According to the supplement of paper PMC10849652:
The list shows a part of the results.

By UniProt entry, the sequences of proteins in these tests, tags left out. Where a name states a change or a piece, a line headed by the entry shows the natural chain unless it says otherwise.
UniProt Q96CS7: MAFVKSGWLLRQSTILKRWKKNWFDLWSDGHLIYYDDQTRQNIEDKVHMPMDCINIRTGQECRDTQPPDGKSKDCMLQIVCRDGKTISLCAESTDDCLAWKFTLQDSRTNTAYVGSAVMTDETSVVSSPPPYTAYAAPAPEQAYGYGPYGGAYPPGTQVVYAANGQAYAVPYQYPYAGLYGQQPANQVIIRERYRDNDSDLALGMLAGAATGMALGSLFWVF
UniProt O00329: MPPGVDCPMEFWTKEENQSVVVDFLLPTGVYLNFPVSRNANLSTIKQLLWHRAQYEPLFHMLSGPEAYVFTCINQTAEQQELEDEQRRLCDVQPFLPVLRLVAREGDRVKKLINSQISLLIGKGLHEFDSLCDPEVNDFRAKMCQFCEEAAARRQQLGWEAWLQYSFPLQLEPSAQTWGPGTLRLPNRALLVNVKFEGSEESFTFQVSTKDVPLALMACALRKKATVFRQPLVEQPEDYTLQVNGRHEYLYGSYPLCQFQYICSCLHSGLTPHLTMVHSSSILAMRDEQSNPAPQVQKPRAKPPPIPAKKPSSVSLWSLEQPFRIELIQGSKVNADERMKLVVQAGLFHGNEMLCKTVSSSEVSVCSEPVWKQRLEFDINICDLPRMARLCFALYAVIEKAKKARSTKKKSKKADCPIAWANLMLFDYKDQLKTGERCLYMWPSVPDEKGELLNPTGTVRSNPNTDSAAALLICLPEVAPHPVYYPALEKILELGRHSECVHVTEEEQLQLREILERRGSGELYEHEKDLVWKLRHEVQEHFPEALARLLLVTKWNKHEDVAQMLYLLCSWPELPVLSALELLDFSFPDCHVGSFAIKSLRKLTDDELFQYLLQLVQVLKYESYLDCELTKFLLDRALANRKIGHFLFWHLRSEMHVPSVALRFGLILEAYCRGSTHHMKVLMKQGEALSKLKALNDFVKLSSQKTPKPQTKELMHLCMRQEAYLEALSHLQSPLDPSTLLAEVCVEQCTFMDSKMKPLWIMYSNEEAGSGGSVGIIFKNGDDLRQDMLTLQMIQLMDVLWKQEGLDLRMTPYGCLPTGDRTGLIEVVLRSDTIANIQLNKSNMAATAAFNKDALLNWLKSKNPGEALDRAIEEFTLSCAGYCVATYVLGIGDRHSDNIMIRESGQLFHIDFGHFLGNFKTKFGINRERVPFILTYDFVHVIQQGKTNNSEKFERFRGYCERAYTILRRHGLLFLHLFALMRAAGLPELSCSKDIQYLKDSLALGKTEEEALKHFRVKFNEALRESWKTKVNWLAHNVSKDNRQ
UniProt Q8IXK0: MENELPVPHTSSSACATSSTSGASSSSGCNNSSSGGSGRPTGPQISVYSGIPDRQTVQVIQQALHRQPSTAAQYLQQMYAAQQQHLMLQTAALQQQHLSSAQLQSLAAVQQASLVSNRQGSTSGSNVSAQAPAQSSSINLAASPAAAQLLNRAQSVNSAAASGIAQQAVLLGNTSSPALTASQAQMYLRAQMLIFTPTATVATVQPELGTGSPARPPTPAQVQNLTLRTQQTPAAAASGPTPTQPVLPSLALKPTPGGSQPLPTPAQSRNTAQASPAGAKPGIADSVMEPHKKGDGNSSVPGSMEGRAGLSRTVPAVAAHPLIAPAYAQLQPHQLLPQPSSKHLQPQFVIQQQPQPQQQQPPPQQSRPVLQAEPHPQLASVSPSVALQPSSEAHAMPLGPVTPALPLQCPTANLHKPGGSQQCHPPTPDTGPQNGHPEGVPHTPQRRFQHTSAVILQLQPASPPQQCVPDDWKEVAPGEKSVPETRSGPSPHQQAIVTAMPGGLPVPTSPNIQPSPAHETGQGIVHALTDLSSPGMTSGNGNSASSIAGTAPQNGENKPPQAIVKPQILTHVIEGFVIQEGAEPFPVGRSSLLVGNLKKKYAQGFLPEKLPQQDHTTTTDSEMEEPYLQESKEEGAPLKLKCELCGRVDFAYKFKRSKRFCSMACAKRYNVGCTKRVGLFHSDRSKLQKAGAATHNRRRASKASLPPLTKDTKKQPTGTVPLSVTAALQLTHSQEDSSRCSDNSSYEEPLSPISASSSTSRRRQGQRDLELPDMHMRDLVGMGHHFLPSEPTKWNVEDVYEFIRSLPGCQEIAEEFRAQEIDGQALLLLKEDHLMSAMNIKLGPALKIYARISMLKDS
UniProt O94880: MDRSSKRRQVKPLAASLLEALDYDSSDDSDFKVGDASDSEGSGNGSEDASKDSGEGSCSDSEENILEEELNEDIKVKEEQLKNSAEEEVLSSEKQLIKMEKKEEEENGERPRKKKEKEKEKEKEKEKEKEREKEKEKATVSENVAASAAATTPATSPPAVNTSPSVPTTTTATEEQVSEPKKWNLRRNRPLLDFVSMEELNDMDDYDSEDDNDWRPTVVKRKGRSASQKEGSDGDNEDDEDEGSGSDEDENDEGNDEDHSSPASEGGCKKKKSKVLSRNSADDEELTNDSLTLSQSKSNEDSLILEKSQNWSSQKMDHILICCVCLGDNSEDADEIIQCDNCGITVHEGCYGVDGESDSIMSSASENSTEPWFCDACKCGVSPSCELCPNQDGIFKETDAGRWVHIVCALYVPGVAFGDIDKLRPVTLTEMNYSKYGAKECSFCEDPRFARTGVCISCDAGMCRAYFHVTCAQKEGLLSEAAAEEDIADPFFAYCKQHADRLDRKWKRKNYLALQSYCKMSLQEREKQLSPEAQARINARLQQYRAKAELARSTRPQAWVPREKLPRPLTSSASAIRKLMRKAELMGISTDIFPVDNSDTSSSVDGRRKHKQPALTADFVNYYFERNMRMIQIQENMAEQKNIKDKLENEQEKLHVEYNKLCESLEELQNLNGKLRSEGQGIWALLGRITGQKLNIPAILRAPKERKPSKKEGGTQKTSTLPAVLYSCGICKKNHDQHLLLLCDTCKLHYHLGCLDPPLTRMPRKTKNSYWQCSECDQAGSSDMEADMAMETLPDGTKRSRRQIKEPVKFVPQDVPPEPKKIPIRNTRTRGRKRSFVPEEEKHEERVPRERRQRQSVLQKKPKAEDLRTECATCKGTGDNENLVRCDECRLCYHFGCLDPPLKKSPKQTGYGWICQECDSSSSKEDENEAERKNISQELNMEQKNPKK
UniProt Q9C010: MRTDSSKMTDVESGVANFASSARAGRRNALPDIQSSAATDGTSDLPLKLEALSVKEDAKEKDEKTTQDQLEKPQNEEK
UniProt Q8IUZ5: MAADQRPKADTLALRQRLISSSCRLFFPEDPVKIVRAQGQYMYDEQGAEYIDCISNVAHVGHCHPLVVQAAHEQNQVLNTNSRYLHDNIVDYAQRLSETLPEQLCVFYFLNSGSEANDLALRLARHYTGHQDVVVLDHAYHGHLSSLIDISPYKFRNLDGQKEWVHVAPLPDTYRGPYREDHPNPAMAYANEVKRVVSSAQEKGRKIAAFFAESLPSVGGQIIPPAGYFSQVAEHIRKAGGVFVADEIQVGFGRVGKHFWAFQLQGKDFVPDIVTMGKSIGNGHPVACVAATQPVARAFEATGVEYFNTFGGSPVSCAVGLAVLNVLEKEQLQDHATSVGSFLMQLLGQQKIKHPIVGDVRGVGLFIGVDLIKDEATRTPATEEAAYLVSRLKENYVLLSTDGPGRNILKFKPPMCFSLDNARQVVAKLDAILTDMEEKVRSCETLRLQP
UniProt P60673: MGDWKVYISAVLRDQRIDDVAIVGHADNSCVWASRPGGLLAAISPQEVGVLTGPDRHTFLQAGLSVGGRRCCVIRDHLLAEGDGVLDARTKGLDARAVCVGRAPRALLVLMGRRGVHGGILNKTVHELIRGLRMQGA
UniProt Q7Z412: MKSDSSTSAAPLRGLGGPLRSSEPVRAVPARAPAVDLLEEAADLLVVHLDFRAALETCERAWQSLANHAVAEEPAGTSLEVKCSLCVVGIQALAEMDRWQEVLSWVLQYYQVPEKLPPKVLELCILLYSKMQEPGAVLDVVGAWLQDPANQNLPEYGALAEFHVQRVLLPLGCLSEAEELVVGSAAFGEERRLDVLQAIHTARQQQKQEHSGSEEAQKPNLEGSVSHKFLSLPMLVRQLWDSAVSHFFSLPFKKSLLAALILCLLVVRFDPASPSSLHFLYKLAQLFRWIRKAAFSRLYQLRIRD
UniProt Q9NRD5, whole entry, looked up: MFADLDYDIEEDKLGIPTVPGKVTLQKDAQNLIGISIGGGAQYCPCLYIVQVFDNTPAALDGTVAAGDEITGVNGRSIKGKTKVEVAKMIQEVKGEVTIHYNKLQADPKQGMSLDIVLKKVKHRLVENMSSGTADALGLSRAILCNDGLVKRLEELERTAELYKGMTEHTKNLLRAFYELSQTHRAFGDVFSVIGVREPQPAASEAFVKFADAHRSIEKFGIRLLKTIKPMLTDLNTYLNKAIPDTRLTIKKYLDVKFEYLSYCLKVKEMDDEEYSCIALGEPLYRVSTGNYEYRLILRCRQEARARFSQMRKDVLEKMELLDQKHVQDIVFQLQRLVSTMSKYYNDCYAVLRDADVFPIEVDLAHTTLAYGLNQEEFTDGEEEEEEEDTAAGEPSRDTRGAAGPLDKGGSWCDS
UniProt O00443: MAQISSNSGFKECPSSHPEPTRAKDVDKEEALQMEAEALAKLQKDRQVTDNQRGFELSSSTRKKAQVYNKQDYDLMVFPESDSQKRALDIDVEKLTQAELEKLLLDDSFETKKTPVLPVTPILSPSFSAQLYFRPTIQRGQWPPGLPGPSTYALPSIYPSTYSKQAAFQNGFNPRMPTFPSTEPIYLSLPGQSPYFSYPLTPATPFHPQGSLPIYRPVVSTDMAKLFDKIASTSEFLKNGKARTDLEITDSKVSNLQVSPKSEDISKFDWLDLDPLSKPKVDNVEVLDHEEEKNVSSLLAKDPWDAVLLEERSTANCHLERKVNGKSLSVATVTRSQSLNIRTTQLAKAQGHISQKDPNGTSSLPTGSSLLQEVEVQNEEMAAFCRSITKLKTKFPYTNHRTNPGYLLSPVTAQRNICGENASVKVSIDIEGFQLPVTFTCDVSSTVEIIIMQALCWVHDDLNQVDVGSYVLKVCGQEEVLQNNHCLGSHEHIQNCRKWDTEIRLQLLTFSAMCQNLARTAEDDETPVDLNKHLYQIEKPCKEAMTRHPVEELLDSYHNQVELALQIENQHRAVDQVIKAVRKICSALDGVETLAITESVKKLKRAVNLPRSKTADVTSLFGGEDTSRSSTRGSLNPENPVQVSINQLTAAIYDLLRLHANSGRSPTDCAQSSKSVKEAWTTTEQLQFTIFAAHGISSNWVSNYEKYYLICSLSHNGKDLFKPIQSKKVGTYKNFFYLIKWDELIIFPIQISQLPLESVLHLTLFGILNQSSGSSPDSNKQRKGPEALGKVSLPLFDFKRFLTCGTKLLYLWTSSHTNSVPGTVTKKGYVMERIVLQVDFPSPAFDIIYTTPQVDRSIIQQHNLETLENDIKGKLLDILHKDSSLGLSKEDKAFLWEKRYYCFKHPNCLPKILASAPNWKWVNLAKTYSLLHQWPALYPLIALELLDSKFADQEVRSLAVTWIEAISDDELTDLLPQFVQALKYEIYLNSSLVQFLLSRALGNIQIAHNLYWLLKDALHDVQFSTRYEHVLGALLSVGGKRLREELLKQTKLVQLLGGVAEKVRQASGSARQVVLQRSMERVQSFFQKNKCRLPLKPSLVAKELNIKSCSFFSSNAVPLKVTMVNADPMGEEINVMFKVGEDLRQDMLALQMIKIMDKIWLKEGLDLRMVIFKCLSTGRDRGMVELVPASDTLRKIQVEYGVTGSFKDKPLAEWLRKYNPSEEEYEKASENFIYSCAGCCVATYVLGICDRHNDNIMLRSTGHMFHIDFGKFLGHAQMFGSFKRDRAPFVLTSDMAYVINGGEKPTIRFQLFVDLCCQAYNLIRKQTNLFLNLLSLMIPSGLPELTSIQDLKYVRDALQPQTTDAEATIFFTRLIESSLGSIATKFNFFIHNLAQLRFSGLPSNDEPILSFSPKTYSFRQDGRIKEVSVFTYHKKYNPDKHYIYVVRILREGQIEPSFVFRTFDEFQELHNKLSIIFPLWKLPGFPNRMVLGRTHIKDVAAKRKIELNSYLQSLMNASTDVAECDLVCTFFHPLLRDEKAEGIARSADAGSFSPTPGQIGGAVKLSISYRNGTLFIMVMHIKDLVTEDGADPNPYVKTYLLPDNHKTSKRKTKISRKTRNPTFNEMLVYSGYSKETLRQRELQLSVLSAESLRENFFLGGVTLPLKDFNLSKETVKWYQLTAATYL
UniProt P56589: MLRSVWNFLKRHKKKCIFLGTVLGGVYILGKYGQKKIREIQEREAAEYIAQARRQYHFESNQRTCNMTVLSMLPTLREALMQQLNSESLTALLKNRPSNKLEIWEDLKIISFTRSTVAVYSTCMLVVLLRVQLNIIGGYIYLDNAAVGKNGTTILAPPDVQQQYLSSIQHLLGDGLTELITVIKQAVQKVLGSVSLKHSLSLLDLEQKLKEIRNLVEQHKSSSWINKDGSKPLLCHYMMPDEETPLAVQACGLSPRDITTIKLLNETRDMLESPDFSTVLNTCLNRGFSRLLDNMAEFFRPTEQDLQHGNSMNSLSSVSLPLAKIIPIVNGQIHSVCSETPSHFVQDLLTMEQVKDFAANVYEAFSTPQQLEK

Each target was assayed with Cc1ccc(NC(=O)c2ccc(CN3CC[C@H](N(C)C)C3)c(C(F)(F)F)c2)cc1Nc1nccc(-c2cncnc2)n1 [bafetinib] (assay: log2 fold change, soluble protein after heating vs DMSO (PISA); higher = thermal stabilisation; K562 cells, 10 uM, 30 min; active = over 0.2 and 3.5 SD of the protein, either way, in both replicates (recomputed)).
In short: (§1)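 K562 cells (2×10^6 cells/mL) were treated with 10 μM compound for 30 min, and aliquots were heated for 3 min over 48°C-58°C. Pooled aliquots were extracted in PBS with 0.5% NP-40 at 4°C, and the supernatant after 21,000xg for 90 min was measured by TMTpro 16plex LC-MS/MS with channel sums equalised. Reported thermal stability, relative to control samples and from duplicates, is a log2 fold change.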

Target | log2 fold change
PKLR (UniProt F8W6W2) | inactive: -0.114
PLCXD1 (UniProt Q9NUJ7) | active: -0.642
PLEKHB2 isoform 2 (UniProt Q96CS7) | inactive: -0.108
PIK3CD (UniProt O00329) | inactive: 0.033
PIAS1 isoform 2 (UniProt O75925) | inactive: -0.089
PIBF1 (UniProt Q8WXW3) | inactive: 0.053
PHC2 isoform 5 (UniProt Q8IXK0) | inactive: 0.074

These targets were tested with Cc1cccc(CC(=O)N2CCc3c2ccc(-c2cn(C)c4ncnc(N)c24)c3F)n1 in the same assay as above.
In short: as §1

Target | log2 fold change
PI4KB isoform 2 (UniProt Q9UBF8) | inactive: 0.038
PIAS4 (UniProt Q8N2W9) | inactive: 0
PHF14 (UniProt O94880) | inactive: 0.069
PHETA1 isoform 4 (UniProt Q8N4B1) | inactive: -0.086
PKIB isoform 2 (UniProt Q9C010) | inactive: -0.113
PIMREG (UniProt Q9BSJ6) | inactive: 0.197
PHYKPL (UniProt Q8IUZ5) | inactive: -0.032
PIM1 isoform 2 (UniProt P11309) | inactive: -0.263
PFN3 (UniProt P60673) | inactive: -0.331
PEX26 (UniProt Q7Z412) | inactive: 0.024
PLEKHA5 isoform 6 (UniProt Q9HAU0) | inactive: 0.034
PIGB (UniProt Q92521) | inactive: 0.085

The targets below were run with Cc1cn(-c2cc(NC(=O)c3ccc(C)c(Nc4nccc(-c5cccnc5)n4)c3)cc(C(F)(F)F)c2)cn1 [nilotinib] in the same assay as above.
In short: as §1

Target | log2 fold change
PICK1 (UniProt Q9NRD5) | inactive: -0.001
PHYKPL (UniProt Q8IUZ5) | inactive: 0.096
PIK3C2A (UniProt O00443) | inactive: -0.039
PEX26 (UniProt Q7Z412) | inactive: -0.169
PEX3 (UniProt P56589) | inactive: -0.105

Each target was assayed with Cc1nc(Nc2n[nH]c3c2CN(C(=O)N[C@H](CN(C)C)c2ccccc2)C3(C)C)c2sccc2n1 in the same assay as above.
In short: as §1

Target | log2 fold change
PICK1 (UniProt Q9NRD5) | inactive: -0.173
PHYKPL (UniProt Q8IUZ5) | inactive: 0.03
PIK3C2A (UniProt O00443) | inactive: 0.247
PEX26 (UniProt Q7Z412) | inactive: 0.187
PEX3 (UniProt P56589) | inactive: 0.132

Each target was assayed with Cc1nc(Nc2ncc(C(=O)Nc3c(C)cccc3Cl)s2)cc(N2CCN(CCO)CC2)n1 [dasatinib] in the same assay as above.
In short: as §1

Target | log2 fold change
PHLPP1 (UniProt O60346) | inactive: 0.007
PIAS4 (UniProt Q8N2W9) | inactive: -0.116
PHF14 (UniProt O94880) | inactive: 0.137
PHETA1 isoform 4 (UniProt Q8N4B1) | inactive: 0.085
PGM1 isoform 2 (UniProt P36871) | inactive: 0.118
PHYKPL (UniProt Q8IUZ5) | inactive: -0.115
PLEKHB2 isoform 2 (UniProt Q96CS7) | inactive: 0.178
PFN3 (UniProt P60673) | inactive: -0.394
PEX26 (UniProt Q7Z412) | inactive: 0.085
PEX3 (UniProt P56589) | inactive: -0.28
PIBF1 (UniProt Q8WXW3) | inactive: -0.009
PHC2 isoform 5 (UniProt Q8IXK0) | inactive: -0.031
PEX5 isoform 4 (UniProt P50542) | inactive: 0.139
PIGB (UniProt Q92521) | inactive: -0.036
PKNOX1 (UniProt P55347) | inactive: -0.103

What follows are targets tested with Cc1ncc(-c2ccnc(Nc3ccc(S(C)(=O)=O)cc3)n2)n1C(C)C in the same assay as above.
In short: as §1

Target | log2 fold change
PICK1 (UniProt Q9NRD5) | inactive: -0.097
PHYKPL (UniProt Q8IUZ5) | inactive: -0.049
PIK3C2A (UniProt O00443) | inactive: 0.451
PEX26 (UniProt Q7Z412) | inactive: -0.494
PEX3 (UniProt P56589) | inactive: -0.153

Each target was assayed with Cn1cc(-c2ccc3c(c2)CCN3C(=O)Cc2cccc(C(F)(F)F)c2)c2c(N)ncnc21 in the same assay as above.
In short: as §1

Target | log2 fold change
PHLPP1 (UniProt O60346) | inactive: 0.026
PIK3CD (UniProt O00329) | inactive: -0.228
PFN3 (UniProt P60673) | inactive: 0.003
PEX26 (UniProt Q7Z412) | inactive: 0.012
PLEKHA5 isoform 6 (UniProt Q9HAU0) | inactive: -0.262
PEX3 (UniProt P56589) | inactive: -0.019
PHC2 isoform 5 (UniProt Q8IXK0) | inactive: -0.008
PEX5 isoform 4 (UniProt P50542) | inactive: 0.219
PIGB (UniProt Q92521) | inactive: -0.105
PLAUR (UniProt Q03405) | inactive: 0.258

Each target was assayed with Cn1cc(-c2ccc3nnc(C(F)(F)c4ccc5ncccc5c4)n3n2)cn1 in the same assay as above.
In short: as §1

Target | log2 fold change
PKP4 (UniProt Q99569) | inactive: 0.081
PIAS4 (UniProt Q8N2W9) | inactive: 0.313
PHF14 (UniProt O94880) | inactive: 0.084
PICK1 (UniProt Q9NRD5) | inactive: -0.179
PHRF1 (UniProt Q9P1Y6) | inactive: 0.084
PLCXD1 (UniProt Q9NUJ7) | inactive: -0.099
PLEK (UniProt P08567) | inactive: -0.024
PIK3CD (UniProt O00329) | inactive: 0.074
PIK3C2A (UniProt O00443) | inactive: -0.278
PIAS1 isoform 2 (UniProt O75925) | inactive: -0.097
PEX26 (UniProt Q7Z412) | inactive: 0.046
PEX3 (UniProt P56589) | inactive: -0.12
PHC2 isoform 5 (UniProt Q8IXK0) | inactive: -0.048
PEX5 isoform 4 (UniProt P50542) | inactive: -0.078
PIGB (UniProt Q92521) | inactive: -0.048
PKMYT1 (UniProt Q99640) | inactive: -0.074
